Results: article PMC11377309
Results are given in words; binding and its absence hold for the method and conditions named.

Experiments:
HLA-G1/β2m (human) [1] = target: T1, HLA-G1/β2m (human) (UniProt P17693+P61769); experiment: Cell-Int (cell-cell conjugates counted by flow cytometry); two batches of 293-F cells, each transfected with one membrane protein and GFP or RFP, mixed in FreeStyle 293 Expression Medium, 1-2 h at 25°C (Juno/Izumo1 also at 4°C and 37°C and from 10 min to 3 h); percent GFP+ RFP+ double-positive events
HLA-G2 (human) [2] = target: HLA-G2 (human) (UniProt P17693); experiment: Cell-Int (cell-cell conjugates counted by flow cytometry); WOP cells stably expressing HLA-G isoforms and transfected with GFP, detached with EDTA, against 293-F cells with receptor and RFP, ratio 1:2, 1-2 h at 25°C; background: β2m-transduced WOP cells
[3] = target: HLA-G1 expressed without co-expressed β2m (human) (UniProt P17693); experiment: as above
HLA-G3 (human) [4] = target: HLA-G3 (human) (UniProt P17693); experiment: as above
HLA-G1/β2m (human) [5] = target: T1, HLA-G1/β2m (human); experiment: as above
HLA-G4 (human) [6] = target: HLA-G4 (human) (UniProt P17693); experiment: as above
HLA-G2 (human) [7] = target: HLA-G2 (human) (UniProt P17693); experiment: Cell-Int (cell-cell conjugates counted by flow cytometry); K562 cells stably expressing GFP and HLA-G isoforms against 293-F cells with receptor and RFP, ratio 1:2, 1-2 h at 25°C
[8] = target: HLA-G1 expressed without co-expressed β2m (human) (UniProt P17693); experiment: as above
HLA-G3 (human) [9] = target: HLA-G3 (human) (UniProt P17693); experiment: as above
HLA-G1/β2m (human) [10] = target: T1, HLA-G1/β2m (human); experiment: as above
HLA-G4 (human) [11] = target: HLA-G4 (human) (UniProt P17693); experiment: as above

Measured: binding

B1: CD160 (receptor, UniProt O95971 25-159)
chain: GCINITSSASQEGTRLNLICTVWHKKEEAEGFVVFLCKDRSGDCSPETSLKQLRLKRDPGIDGVGEISSQLMFTISQVTPLHSGTYQCCARSQKSGIRLQGHFFSILFTETGNYTVTGLKQRQHLEFSHNEGTLS
no binding: all assays above
